Experimental data as given in PubChem BioAssay AID1347076 (National Center for Advancing Translational Sciences (NCATS), 2019).
The campaign covered roughly 400,000 compounds. About 13,000 (3.2%) were called active. Inconclusive results, whose numbers are uncertain, are shown with a selection of clear calls. Calls follow the shape of the dose curve; as a rule, active = well fitted cell-killing curve with a large enough effect; inconclusive = small, poorly fitted or top-dose-only effect, or effect the other way; inactive = flat fitted curve, though single readings scatter. Potencies of inconclusive entries are doubtful fits and often do not repeat.

assay: qHTS assay for MDR1-selective chemotherapeutics: Primary screen using the drug-selected MDR subline cells KB-V1; conditions: KB-V1 MDR cells viability, CellTiter-Glo, 72 h; activity change, negative = cytotoxicity: at 46.1 µM (top of the series); also: nearly all actives have a fitted effect of over 60% in size
Summary of the method: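 Luminescent ATP read-out (CellTiter-Glo, 10 min) measures survival of drug-selected KB-V1 MDR cells after 72 h, 37 degrees C compound exposure. Medium: phenol-red-free DMEM, 10% FBS. Values from fitted concentration-response curves.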
% is scaled to controls: 0 for no effect and ±100 for the full control effect; potency is read from the fitted curve at half-maximal effect.

**Q.** With `O=C(CC1C(=O)NCCN1Cc1cccc(C(F)(F)F)c1)NCCc1cnccn1` (stereo unspecified) as the compound, how does the “activity change, negative = cytotoxicity” value read?
**A.** inactive: 5.12%

**Q.** Which Potency does the source give for `COc1cccc(/C=C/C(=O)OCC(=O)NC2CCCCCCC2)c1` here?
**A.** inconclusive: 6.51 µM [rising, partial curve, poor fit]

**Q.** With `COc1ccc(Cl)cc1NC(=O)CN(C)S(=O)(=O)c1ccc2c(c1)CCCN2C(C)=O` as the compound, how does the “activity change, negative = cytotoxicity” value read?
**A.** inactive: -5.49%

**Q.** With `COc1ccc(C2=NN(c3ccccc3)C(c3ccc(OC)c(OC)c3)C2)cc1` (stereo unspecified) as the compound, how does the “activity change, negative = cytotoxicity” value read?
**A.** inactive: 7.44%

**Q.** Which Potency does the source give for `COc1cc(/C=C/C(=O)OCC(=O)Nc2ccccc2Sc2ccc(Cl)cc2)ccc1O` here?
**A.** inconclusive: 29.1 µM [cytotoxic, single point]

**Q.** With `O=C1C2CC=CCC2C(=O)N1c1ccc(OCC(O)Cn2nnc3ccccc32)cc1` (stereo unspecified) as the compound, how does the Potency read?
**A.** active: 14.6 µM

**Q.** With `CCc1ccc(-c2nc(CN3CCCC(C(=O)N4CCN(c5cc(Cl)ccc5C)CC4)C3)c(C)o2)cc1` (stereo unspecified) as the compound, how does the Potency read?
**A.** inconclusive: 16.4 µM [cytotoxic, single point]

**Q.** Which Potency does the source give for `COCC1CCN(C(=O)C2CCC(=O)N(Cc3ccc(Cl)cc3)C2)CC1` (stereo unspecified) here?
**A.** inconclusive: 20.6 µM [cytotoxic, single point]

**Q.** Which Potency does the source give for `CC1(C(=O)NCc2ccccc2Br)CCN1C(=O)CCc1ccc(Cl)cc1Cl` (stereo unspecified) here?
**A.** inconclusive: 29.1 µM [cytotoxic, single point]

**Q.** Which Potency does the source give for `CC(=O)NC(CC(=O)NCCOc1ccccc1F)c1ccccc1` (stereo unspecified) here?
**A.** inconclusive: 29.1 µM [rising, single point]

**Q.** Which Potency does the source give for `O=C(Nc1ccc(Cl)cc1C(=O)Nc1ccc(Br)cn1)c1ccco1` here?
**A.** active: 5.17 µM

**Q.** With `COc1ccc(-c2cc(=O)oc3c(C)c(O)c(CN(C)C)cc23)cc1` as the compound, how does the Potency read?
**A.** active: 2.31 µM

**Q.** For `Cn1ncc(Cl)c1C(=O)Nc1nnc(C2CC2)s1`, which Potency is on record?
**A.** inconclusive: 14.6 µM [rising, partial curve]

**Q.** For `COc1ccc(O)c(CN2CCN(CCCc3ccccc3)C(CCO)C2)c1` (stereo unspecified), which “activity change, negative = cytotoxicity” value is on record?
**A.** inactive: 0%

**Q.** For `CCC(=O)c1cn(CC(=O)Nc2cccc(C)c2C)c2ccccc12`, which “activity change, negative = cytotoxicity” value is on record?
**A.** inactive: -2.69%

**Q.** Which “activity change, negative = cytotoxicity” value does the source give for `OC1CCCCC1` here?
**A.** inactive: 0.18%

**Q.** For `COc1ccccc1Oc1ccc(S(=O)(=O)N2CCN(C)CC2)cc1`, which Potency is on record?
**A.** inconclusive: 18.4 µM [cytotoxic, partial curve]

**Q.** Which “activity change, negative = cytotoxicity” value does the source give for `Cc1cccc(CN2CCCC(C(=O)Nc3ccccc3Oc3cccnc3)C2)c1` (stereo unspecified) here?
**A.** inactive: 1.26%

**Q.** For `CCN(C(=S)Nc1ccc(Oc2ccccc2)cc1)c1ccccc1`, which Potency is on record?
**A.** inconclusive: 18.4 µM [cytotoxic, partial curve, poor fit]

**Q.** With `N#Cc1ccc(C(=O)OCc2cccc(S(=O)(=O)N3CCOCC3)c2)cc1` as the compound, how does the Potency read?
**A.** inconclusive: 2.59 µM [rising, full curve]

**Q.** For `COc1ccc(NC(=O)C(c2ccc(C)cc2)N(C)C(=O)Cc2cccs2)cc1` (stereo unspecified), which Potency is on record?
**A.** inconclusive: 7.31 µM [cytotoxic, partial curve]

**Q.** With `O=C(NCc1ccccc1Cl)c1ccc2c(=O)n(CC3CCCO3)c(=S)[nH]c2c1` (stereo unspecified) as the compound, how does the Potency read?
**A.** inconclusive: 23.1 µM [cytotoxic, single point]

**Q.** With `O=C(CN1CCN(c2ccccc2)CC1)Nc1ccc(Oc2ccccc2)cc1` as the compound, how does the Potency read?
**A.** active: 23.1 µM

**Q.** For `Cc1ccccc1Nc1nc(N)nc(-c2oc3ccccc3c2C)n1`, which Potency is on record?
**A.** inconclusive: 29.1 µM [cytotoxic, single point]

**Q.** For `Cc1ccc2c(c1)[C@H]1[C@H](CO2)[C@H](c2ccccc2)[C@]2(C)C(=O)Nc3ccc(F)cc3C(=O)N12`, which Potency is on record?
**A.** inconclusive: 23.1 µM [cytotoxic, single point]

**Q.** Which “activity change, negative = cytotoxicity” value does the source give for `COc1cc(CNc2ncnc3c2ncn3[C@H]2CN(Cc3ccncc3)C[C@@H](CO)O2)cc(OC)c1OC` here?
**A.** inactive: 2.95%

**Q.** Which “activity change, negative = cytotoxicity” value does the source give for `CCc1noc(C)c1C(=O)N1CC(C)OC(C)C1` (stereo unspecified) here?
**A.** inactive: -11.9%

**Q.** With `Cc1ccc(NC(=O)COc2ccc(N(C)C(=O)C(C)(C)C)cc2)cc1S(=O)(=O)N1CCCCC1` as the compound, how does the Potency read?
**A.** active: 18.4 µM

**Q.** With `CC(C)(C)c1ccc(OCCn2ccccc2=O)cc1` as the compound, how does the Potency read?
**A.** inconclusive: 18.4 µM [cytotoxic, single point]

**Q.** For `COc1ccc(/C=C/c2ccccn2)cc1`, which “activity change, negative = cytotoxicity” value is on record?
**A.** inactive: 2.03%

**Q.** For `Clc1ccc(CN2CCC(Cc3ccccc3)CC2)cc1`, which Potency is on record?
**A.** inconclusive: 11.6 µM [cytotoxic, partial curve]

**Q.** Which “activity change, negative = cytotoxicity” value does the source give for `Cc1cccc2nc(CSc3nnnn3-c3ccccc3)cn12` here?
**A.** inactive: -8.23%

**Q.** With `COC(=O)c1ccc(CSc2nnc(Nc3ccccc3OC)s2)o1` as the compound, how does the “activity change, negative = cytotoxicity” value read?
**A.** inactive: 8.58%

**Q.** For `CCOc1ccc(N2C(=O)CC(SC(=NC)Nc3ccc4c(c3)OCO4)C2=O)cc1` (stereo unspecified), which “activity change, negative = cytotoxicity” value is on record?
**A.** inactive: -5.67%

**Q.** For `Cc1cc(C)cc(N(CC(=O)N2CCOCC2)S(=O)(=O)c2ccccc2)c1`, which Potency is on record?
**A.** inconclusive: 2.91 µM [cytotoxic, full curve, poor fit]

**Q.** For `O=C(NCc1ccc(-c2nc3ccccc3s2)cc1)c1ccco1`, which Potency is on record?
**A.** active: 23.1 µM

**Q.** With `COc1cc(/C=N/O)cc(Br)c1OS(=O)(=O)c1ccc(C)cc1` as the compound, how does the Potency read?
**A.** inconclusive: 20.6 µM [cytotoxic, single point]

**Q.** Which Potency does the source give for `O=C(NCCc1ccc(Cl)cc1)c1cnccn1` here?
**A.** inconclusive: 1.64 µM [rising, partial curve, poor fit]

**Q.** With `CC(=O)c1ccccc1NC(=O)CCCNC(=O)c1ccc(Cl)cc1` as the compound, how does the “activity change, negative = cytotoxicity” value read?
**A.** inactive: -3.44%

**Q.** With `COC(=O)c1ccc(C(=O)NC(=S)Nc2nc3c(s2)CCCC3)cc1` as the compound, how does the Potency read?
**A.** inconclusive: 25.9 µM [cytotoxic, partial curve, poor fit]

**Q.** For `COc1ccc(-c2cccc(NS(=O)(=O)c3cc(C)c(OC)c(C)c3C)c2)nn1`, which Potency is on record?
**A.** inconclusive: 3.26 µM [cytotoxic, full curve, poor fit]

**Q.** For `O=C(NCc1ccccc1)C1C2C=CC3(CN(Cc4cccnc4)C(=O)C13)O2` (stereo unspecified), which Potency is on record?
**A.** inconclusive: 35.5 µM [cytotoxic, single point]

**Q.** For `CCOC(=O)c1csc(N)c1-c1ccc([N+](=O)[O-])cc1`, which “activity change, negative = cytotoxicity” value is on record?
**A.** inactive: -17.4%

**Q.** Which Potency does the source give for `Nc1ccccc1SCCS(=O)(=O)c1ccc(Cl)cc1` here?
**A.** inconclusive: 20.6 µM [rising, single point]

**Q.** For `O=C(Cc1ccc(S(=O)(=O)N2CCCC2)s1)N1CCN(c2ccccc2)CC1`, which Potency is on record?
**A.** inconclusive: 18.4 µM [cytotoxic, single point]

**Q.** With `C[C@@H](C(=O)Nc1ccc2ccccc2c1)[C@H]1C[C@]1(C)[C@H](NC(=O)OCc1ccccc1)c1ccccc1` as the compound, how does the Potency read?
**A.** inconclusive: 18.4 µM [cytotoxic, partial curve, poor fit]
